Values quoted from earlier work in patent US9895309B2, “Selenosugars for skin tissue repair” (SELENO THERAPEUTICS PTY LTD., priority 2014, dated 2018).
At least one structure is not confirmed: it was looked up by name or label, or the drawing left a doubt.

Tested on: diabetic and non-diabetic wounds
Conditions: cited from earlier work

O=[Se](O)O [sodium selenite]
Acceleration of wound healing (oral administration, non-diabetic wounds): ineffective
Wound healing (taken orally, diabetic condition): accelerate wound healing
